{"source": "PubChem BioAssay AID493014", "about": "(National Center for Advancing Translational Sciences (NCATS), 2011)", "note": "Out of some 340,000 compounds screened, about 170 (0.05%) were called active. Inconclusive means that the source gave no clear call. Such entries were picked first, then a sample of the others. Calls come from the whole dose curve; as a rule, active = well fitted inhibition curve with a large enough effect in the signal ratio, with a control signal flat (not every such curve was filed as active); inconclusive = small, poorly fitted or top-dose-only effect, or effect the other way, or a change in a side signal; inactive = flat fitted curve, though single readings scatter; the % refers to the signal ratio. Potencies beside an inconclusive call are fits to weak or partial responses and may not hold up. Potency is the fitted concentration of half-maximal effect.", "data": [{"assay": "qHTS Assay to Find Inhibitors of Chronic Active B-Cell Receptor Signaling;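 for activity change, negative = inhibition: plate controls were basal doxycycline-induced cells for no effect and cells given 10 µM MG132 for full effect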", "details": "ABC-DLBCL IkBa-CBG/CBR reporter, luminescence ratio (green luciferase fused to IkBa over red control in TMD8 lymphoma cells), 4 h; activity change, negative = inhibition: at 46.1 µM (top of the series)", "in_short": "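TMD8 ABC-DLBCL cells carrying doxycycline-inducible green luciferase fused to IkappaBalpha plus unfused red luciferase were exposed to compounds (up to 46 uM) for 4 hrs at 37C. Activity came from the overlap-corrected green/red luminescence ratio.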", "values": [{"smiles": "Nc1ccc(C(=O)N/N=C/c2ccc(N3CCOCC3)s2)cc1", "Potency": "inconclusive: 18.4 µM [falling, partial curve]"}, {"smiles": "O=C(NCCc1c[nH]c2ccccc12)C(=O)c1c[nH]c2ccccc12", "Potency": "inconclusive: 6.31 µM [falling, partial curve, poor fit]"}, {"smiles": "COc1ccc(CNC(=O)C2CCN(C(=O)c3csc(Nc4ccc(C)cc4)n3)CC2)cc1", "Potency": "inconclusive: 17.8 µM [falling, single point]"}, {"smiles": "O=C(c1cccc2ccccc12)C1CCCN(C(=O)C2CCOCC2)C1", "note": "(stereo not given)", "activity change, negative = inhibition": "inconclusive: 2.13%"}, {"smiles": "Cc1nnc(N/N=C/c2c[nH]c3ccccc23)[nH]c1=O", "activity change, negative = inhibition": "inconclusive: 1.83%"}, {"smiles": "CCCCCC(=O)NNC(=S)NC(=O)c1cccc([N+](=O)[O-])c1", "activity change, negative = inhibition": "inconclusive: 0.17%"}, {"smiles": "COc1ccccc1C(=O)Nc1ccccc1N1CCN(S(C)(=O)=O)CC1", "activity change, negative = inhibition": "inconclusive: 2.75%"}, {"smiles": "O=C(NCc1ccc(F)cc1)c1cccc2c1C(=O)N(Cc1cccnc1)C2", "activity change, negative = inhibition": "inconclusive: -28.5%"}, {"smiles": "FC(F)(F)c1ccc(Sc2n[nH]c(C(F)(F)F)n2)nc1", "activity change, negative = inhibition": "inconclusive: 20.3%"}, {"smiles": "COc1ccc2cc(Br)ccc2c1CC(=O)NCC1CCCO1", "note": "(stereo not given)", "activity change, negative = inhibition": "inactive"}, {"smiles": "CN(CC(=O)Nc1ccc(F)c(F)c1F)C(=O)CCc1nc2sc3c(c2c(=O)[nH]1)CCCC3", "activity change, negative = inhibition": "inactive"}, {"smiles": "Cc1noc(NS(=O)(=O)c2ccc(NC(=O)c3cnc4scc(C)n4c3=O)cc2)c1C", "activity change, negative = inhibition": "inactive"}, {"smiles": "Cn1ccnc1SCc1cc(=O)[nH]c2ccccc12", "activity change, negative = inhibition": "inconclusive: 11.3%"}, {"smiles": "O=C(Nc1ccc2c(c1)OCO2)c1noc2c1CCCCC2", "Potency": "inconclusive: 22.4 µM [falling, single point]"}, {"smiles": "CSc1ccccc1NC(=O)c1cccs1", "activity change, negative = inhibition": "inconclusive: 3.2%"}, {"smiles": "O=C(CSc1ccc2ccccc2n1)c1ccccc1", "Potency": "inconclusive: 15.8 µM [falling, single point]"}, {"smiles": "O=C(CN1C(=O)NC(Cc2ccccc2)C1=O)Nc1ccccc1", "note": "(stereo not given)", "Potency": "inconclusive: 32.6 µM [falling, partial curve, poor fit]"}, {"smiles": "CCOc1ccc(Br)cc1C(=O)N/N=C/c1ccccn1", "Potency": "inconclusive: 25.1 µM [falling, partial curve, poor fit]"}, {"smiles": "O=S(=O)(NCC1CN(S(=O)(=O)c2ccc3c(c2)OCCO3)C1)c1c(F)cccc1F", "activity change, negative = inhibition": "inconclusive: -1.78%"}, {"smiles": "COc1cc(/C=C2\\C(=O)N(C)C(=S)N2C)ccc1O", "Potency": "inconclusive: 16.4 µM [falling, partial curve]"}, {"smiles": "O=C(CSc1ccccc1)NCCc1ccccc1", "activity change, negative = inhibition": "inconclusive: -20.3%"}, {"smiles": "Cc1ccc2oc(C(=O)N3CCCCCC3)c(C)c2c1", "activity change, negative = inhibition": "inconclusive: 5.9%"}, {"smiles": "O=C(C1Cc2ccccc2CN1C(=O)c1ccco1)N1CCN(c2ccccc2)CC1", "note": "(stereo not given)", "activity change, negative = inhibition": "inconclusive: -21.7%"}, {"smiles": "Cc1csc(NC(=O)CCc2ccc(S(=O)(=O)N3CCOCC3)cc2)n1", "activity change, negative = inhibition": "inconclusive: 33.6%"}, {"smiles": "CN(Cc1ccccc1)c1ccc(C(CC(N)=O)NC(=O)c2ccc(Br)cc2)cc1[N+](=O)[O-]", "note": "(stereo not given)", "Potency": "inconclusive: 15.8 µM [falling, single point]"}, {"smiles": "Cc1ccc(C(CNS(=O)(=O)c2ccc(F)cc2C)N2CCN(C)CC2)cc1", "note": "(stereo not given)", "activity change, negative = inhibition": "inconclusive: 10.9%"}, {"smiles": "Cn1nnnc1SCCNCc1ccccc1OCc1ccc(F)cc1", "activity change, negative = inhibition": "inactive"}, {"smiles": "O=C(c1ccccc1)C(Cn1cncn1)C(Sc1ccccc1)c1ccccc1", "note": "(stereo not given)", "Potency": "inconclusive: 16.4 µM [rising, single point]"}, {"smiles": "COCCn1c(C)cc(/C=C2/NC(=O)N(c3ccc(Cl)cc3)C2=O)c1C", "activity change, negative = inhibition": "inconclusive: 2.91%"}, {"smiles": "CCOC(=O)C1CCN(c2ncnc3c2nnn3C)CC1", "activity change, negative = inhibition": "inactive"}, {"smiles": "COc1ccccc1OCCC(=O)OCC(=O)NC(=O)NC(C)(C)C", "activity change, negative = inhibition": "inconclusive: -11.2%"}, {"smiles": "COc1ccc(S(=O)(=O)N2CCN(Cc3ccco3)CC2)cc1", "activity change, negative = inhibition": "inactive"}, {"smiles": "Cc1ccc(S(=O)(=O)N2CCCC(CCC(=O)NCc3ccccc3F)C2)s1", "note": "(stereo not given)", "Potency": "inconclusive: 20 µM [falling, single point]"}, {"smiles": "Cc1ccc(CNC(=O)CSc2c3c(nc4cc(Cl)ccc24)CCCC3)o1", "activity change, negative = inhibition": "inconclusive: 2.81%"}, {"smiles": "CCn1nc(C)c(/C=N/NC(=O)c2ccc3c(c2)c(C)c(C)n3Cc2ccccc2)c1C", "activity change, negative = inhibition": "inactive"}, {"smiles": "Cc1cc(NC(=O)c2ccc(-c3ccc(F)c(Cl)c3)o2)no1", "activity change, negative = inhibition": "inconclusive: -1.28%"}, {"smiles": "COc1cc(C(=O)NNC(=S)Nc2ccc(S(N)(=O)=O)cc2)cc(OC)c1OC", "Potency": "inconclusive: 14.1 µM [falling, partial curve]"}, {"smiles": "Cc1ccc(/C=N/Nc2ncnc3nc[nH]c23)cc1", "Potency": "inconclusive: 22.4 µM [falling, partial curve, poor fit]"}, {"smiles": "CCc1ccc2[nH]c3nc(SCc4nnc(-c5ccc(C)cc5)o4)nnc3c2c1", "activity change, negative = inhibition": "inconclusive: 14.7%"}, {"smiles": "COC(=O)Cc1c[nH]c2cccc(OCC(O)CN(Cc3ccccc3)C(C)C)c12", "note": "(stereo not given)", "activity change, negative = inhibition": "inactive"}, {"smiles": "Fc1ccc(Nc2ncnc3sc4c(c23)CCC4)cc1F", "activity change, negative = inhibition": "inconclusive: 1.23%"}, {"smiles": "CN(C)Cc1c(C(=O)N/N=C/CCc2ccccc2)nnn1-c1nonc1N", "Potency": "inconclusive: 11.2 µM [rising, partial curve, poor fit]"}, {"smiles": "COc1cc2c(cc1OC)C(COc1ccc(F)cc1)N(C(=O)Cc1ccc(F)cc1)CC2", "note": "(stereo not given)", "activity change, negative = inhibition": "inactive"}, {"smiles": "COc1ccccc1C(=O)NCCc1nc2ccccc2n1C", "Potency": "inconclusive: 22.4 µM [falling, single point]"}, {"smiles": "O=C(Nc1cccnc1)c1ccc(COc2ccccc2Cl)o1", "activity change, negative = inhibition": "inactive"}, {"smiles": "O=C(O)COc1ccc(/C=N/NC(=O)c2ccccc2Br)cc1", "Potency": "inconclusive: 14.1 µM [falling, partial curve]"}, {"smiles": "Cc1cccc(C(=O)N/N=C/C(C)Cc2ccc3c(c2)OCO3)c1", "note": "(stereo not given)", "Potency": "inconclusive: 25.9 µM [falling, partial curve, poor fit]"}, {"smiles": "Cc1ccc(NC(=O)CSc2nnc(CNC(=O)c3ccco3)n2C)cc1C", "activity change, negative = inhibition": "inconclusive: 3.87%"}, {"smiles": "Cc1cccc(OC2CCN(Cc3c(C(=O)N4CCCC4)nc4ccccn34)CC2)c1", "activity change, negative = inhibition": "inactive"}, {"smiles": "Nc1n[nH]c(N)c1N=Nc1ccc(Cl)cc1Cl", "activity change, negative = inhibition": "inconclusive: 3.82%"}, {"smiles": "CCOC(=O)NC(=O)CSc1nc(C)cc(C)c1C#N", "activity change, negative = inhibition": "inactive"}, {"smiles": "O=C(Nc1ccccc1Cl)/C(Cl)=C(\\Cl)S(=O)c1ccccc1", "note": "(stereo not given)", "activity change, negative = inhibition": "inconclusive: 9.43%"}, {"smiles": "NC(=O)c1c(NC(=O)c2ccccc2Cl)sc2c1CCC2", "activity change, negative = inhibition": "inactive"}, {"smiles": "Cc1ccc(-n2ncc3c(=O)n(CC(=O)N4CCN(c5ccccc5)CC4)cnc32)cc1", "activity change, negative = inhibition": "inconclusive: 9.4%"}, {"smiles": "Cc1cc(CNC(=O)c2cc(COc3c(F)cccc3F)on2)nn1C", "activity change, negative = inhibition": "inconclusive: 13.7%"}, {"smiles": "CC(C)(C)c1ccc(-c2noc(CCC(=O)Nc3cccnc3)n2)cc1", "Potency": "inconclusive: 20 µM [falling, partial curve]"}, {"smiles": "Clc1cccc(-c2cc3nc4c(c(N5CCOCC5)n3n2)CCCC4)c1", "activity change, negative = inhibition": "inconclusive: -13.9%"}, {"smiles": "CCOC(=O)C1=C(C)N(c2ccc(OC)cc2)C(=O)/C1=C\\c1cccs1", "activity change, negative = inhibition": "inconclusive: -0.192%"}, {"smiles": "CC12CCC(C(=O)Nc3cccnc3)(CC1=O)C2(C)C", "note": "(stereo not given)", "activity change, negative = inhibition": "inconclusive: -0.467%"}, {"smiles": "O=C(CCl)Nc1cccc(CP(=O)(c2ccccc2)c2ccccc2)c1", "Potency": "inconclusive: 15.8 µM [falling, partial curve]"}, {"smiles": "CCCCNC(=O)Nc1nnc(-c2ccc(Cl)cc2)o1", "Potency": "inconclusive: 0.82 µM [rising, partial curve]"}, {"smiles": "CS(=O)c1ccccc1-c1nc(-c2ccc(Cl)cc2)no1", "note": "(stereo not given)", "activity change, negative = inhibition": "inconclusive: 13%"}, {"smiles": "COC(=O)c1ccc(CSc2nc3scc(-c4cccs4)c3c(=O)[nH]2)o1", "Potency": "inconclusive: 35.5 µM [falling, single point]"}, {"smiles": "COc1ccc(-c2nc(SC(CC(=O)NCc3ccccc3)c3ccc(OC)c(OC)c3)n[nH]2)cc1", "note": "(stereo not given)", "activity change, negative = inhibition": "inconclusive: 4.09%"}, {"smiles": "CC(C)OC(=O)Cn1nc(C(F)(F)F)c2c1CCCC2", "activity change, negative = inhibition": "inconclusive: 13.1%"}, {"smiles": "CC(C)c1nnc(NC(=O)CCC(=O)Nc2ccc(F)cc2)s1", "activity change, negative = inhibition": "inconclusive: -5.04%"}, {"smiles": "O=C(Nc1cccc(-c2cn3ccccc3n2)c1)c1cnccn1", "activity change, negative = inhibition": "inactive"}, {"smiles": "O=C(NCc1cc([N+](=O)[O-])ccc1O)c1cccnc1Sc1ccccc1", "Potency": "inconclusive: 31.6 µM [rising, single point]"}, {"smiles": "Cc1nc2ccc(NC(=O)NC(=O)c3c(Cl)cccc3Cl)cc2o1", "activity change, negative = inhibition": "inconclusive: -6.02%"}, {"smiles": "CC(C)CCNC(=O)c1ccc2c(Cl)c3c(nc2c1)CCC3", "Potency": "inconclusive: 31.6 µM [falling, single point]"}, {"smiles": "OCCNCCCCOc1ccc(OCc2ccccc2)cc1", "activity change, negative = inhibition": "inconclusive: 10.8%"}, {"smiles": "NC(=S)N/N=C/c1ccc(Br)o1", "Potency": "inconclusive: 35.5 µM [falling, single point]"}, {"smiles": "COc1ccc(NC(=O)CN2CCN(c3c(C)cccc3C)CC2)cc1", "Potency": "inconclusive: 15.8 µM [falling, partial curve, poor fit]"}, {"smiles": "COc1ccc(NC(=O)CCCc2nnc3n(C)c(=O)c4sccc4n23)cc1", "activity change, negative = inhibition": "inactive"}, {"smiles": "O=S(=O)(c1cccc2cccnc12)N1CCCCC1", "activity change, negative = inhibition": "inactive"}, {"smiles": "O=C(c1cc2ccccc2o1)N1CCCC1", "activity change, negative = inhibition": "inactive"}, {"smiles": "CC(=O)Nc1cccc(/C(C)=N/NC(=O)c2ccc3c(c2)OCO3)c1", "Potency": "inconclusive: 12.6 µM [falling, partial curve]"}, {"smiles": "O=C(COc1coc(CN2CCc3ccccc3C2)cc1=O)Nc1ccccc1F", "Potency": "inconclusive: 7.31 µM [falling, partial curve, poor fit]"}, {"smiles": "CC(=O)Cc1nsc(NC(=O)c2ccc(-c3ccccc3Cl)o2)n1", "Potency": "inconclusive: 18.4 µM [falling, single point]"}, {"smiles": "O=c1c2sc(-c3ccccc3)cc2nc2n1CCCCC2", "Potency": "inconclusive: 15.8 µM [falling, partial curve]"}]}]}
